Measurements published in US20030195187A1, “Guanidino compounds” (CHIRON CORPORATION, priority 2002, published 2003).
Some results were stated once for a whole list of compounds, not compound by compound.

The chains behind the UniProt entries cited, without tags or fusion partners.
UniProt P32245, whole entry, species assumed: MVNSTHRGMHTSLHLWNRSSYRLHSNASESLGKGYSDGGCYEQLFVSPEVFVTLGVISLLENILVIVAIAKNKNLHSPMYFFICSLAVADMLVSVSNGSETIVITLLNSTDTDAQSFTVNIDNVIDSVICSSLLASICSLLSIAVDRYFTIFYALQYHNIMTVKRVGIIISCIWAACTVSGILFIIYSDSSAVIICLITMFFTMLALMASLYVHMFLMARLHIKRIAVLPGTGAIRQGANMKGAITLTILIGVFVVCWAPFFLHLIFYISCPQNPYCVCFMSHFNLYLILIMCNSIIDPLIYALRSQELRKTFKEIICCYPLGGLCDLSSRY

Target: MC4-R (Homo sapiens, UniProt P32245)
Test: cAMP Scintillation Proximity Assay in cells expressing MC4-R
Assay type: cell-based
Conditions: intercellular cAMP measured by SPA kit

Compound | −log EC50
C[C@@H]1[C@@H](/N=C(\Nc2ccc(NC(=O)CCc3ccc(Cl)cc3Cl)cc2)N2CCN[C@@H](C)C2)C[C@H]2C[C@@H]1C2(C)C [Example 88, 3-(2,4-dichlorophenyl)-N-{4-[((E)-[(3S)-3-methylpiperazin-1-yl]{[(1S,2S,3S,5R)-2,6,6-trimethylbicyclo[3.1.1]hept-3-yl]imino}methyl)amino]phenyl}propanamide] | above 3
Cc1ccc(CCC(=O)Nc2ccc(N/C(=N\[C@H]3C[C@H]4C[C@@H]([C@@H]3C)C4(C)C)N3C[C@@H](C)N[C@@H](C)C3)cc2)c(C)c1 [Example 90, 3-(2,4-dimethylphenyl)-N-{4-[((E)-[(3R,5S)-3,5-dimethylpiperazin-1-yl]{[(1S,2S,3S,5R)-2,6,6-trimethylbicyclo[3.1.1]hept-3-yl]imino}methyl)amino]phenyl}propanamide] | above 3
CC1CCC(/N=C(\Nc2ccc(NC(=O)CCc3ccc(Cl)cc3Cl)cc2)N2CCN[C@@H](C)C2)CC1 (stereo partly drawn) [Example 92, 3-(2,4-dichlorophenyl)-N-[4-({(E)-[(4-methylcyclohexyl)imino][(3S)-3-methylpiperazin-1-yl]methyl}amino)phenyl]propanamide] | above 3
C[C@H]1CN(/C(=N\C2CCCCC2)Nc2ccc(NC(=O)CCc3ccc(Cl)cc3Cl)cc2)CCN1 [Example 95, N-[4-({(Z)-(cyclohexylimino)[(3S)-3-methylpiperazin-1-yl]methyl}amino)phenyl]-3-(2,4-dichlorophenyl)propanamide] | above 3
C[C@@H]1[C@@H](/N=C(/Nc2ccc(NC(=O)[C@H](N)Cc3ccc(Cl)cc3Cl)cc2)N2C[C@@H](C)N[C@@H](C)C2)C[C@H]2C[C@@H]1C2(C)C [Example 97, (2R)-2-amino-3-(2,4-dichlorophenyl)-N-{4-[((Z)-[(3R,5S)-3,5-dimethylpiperazin-1-yl]{[(1S,2S,3S,5R)-2,6,6-trimethylbicyclo[3.1.1]hept-3-yl]imino}methyl)amino]phenyl}propanamide] | above 3
CC(=O)N[C@H](Cc1ccc(C)cc1F)C(=O)Nc1ccc(N/C(=N/[C@H]2C[C@H]3C[C@@H]([C@@H]2C)C3(C)C)N2C[C@@H](C)N[C@@H](C)C2)cc1 [Example 99, (2R)-2-(acetylamino)-N-{4-[((Z)-[(3R,5S)-3,5-dimethylpiperazin-1-yl]{[(1S,2S,3S,5R)-2,6,6-trimethylbicyclo[3.1.1]hept-3-yl]imino}methyl)amino]phenyl}-3-(2-fluoro-4-methylphenyl)propanamide] | above 3
COc1ccc(C[C@@H](NC(C)=O)C(=O)Nc2ccc(N/C(=N/[C@H]3C[C@H]4C[C@@H]([C@@H]3C)C4(C)C)N3C[C@@H](C)N[C@@H](C)C3)cc2)c(F)c1 [Example 101, (2R)-2-(acetylamino)-N-{4-[((Z)-[(3R,5S)-3,5-dimethylpiperazin-1-yl]{[(1S,2S,3S,5R)-2,6,6-trimethylbicyclo[3.1.1]hept-3-yl]imino}methyl)amino]phenyl}-3-[2-fluoro-4-(methyloxy)phenyl]propanamide] | above 3
COc1ccc(C[C@H](NC(C)=O)C(=O)Nc2ccc(N/C(=N/[C@H]3C[C@H]4C[C@@H]([C@@H]3C)C4(C)C)N3C[C@@H](C)N[C@@H](C)C3)cc2)c(F)c1 [Example 102, (2S)-2-(acetylamino)-N-{4-[((Z)-[(3R,5S)-3,5-dimethylpiperazin-1-yl]{[(1S,2S,3S,5R)-2,6,6-trimethylbicyclo[3.1.1]hept-3-yl]imino}methyl)amino]phenyl}-3-[2-fluoro-4-(methyloxy)phenyl]propanamide] | above 3
Cc1ccc(C[C@@H](N)C(=O)Nc2ccc(N/C(=N/[C@H]3C[C@H]4C[C@@H]([C@@H]3C)C4(C)C)N3C[C@@H](C)N[C@@H](C)C3)cc2)c(F)c1 [Example 106, (2R)-2-amino-N-{4-[((Z)-[(3R,5S)-3,5-dimethylpiperazin-1-yl]{[(1S,2S,3S,5R)-2,6,6-trimethylbicyclo[3.1.1]hept-3-yl]imino}methyl)amino]phenyl}-3-(2-fluoro-4-methylphenyl)propanamide] | above 3
COc1ccc(C[C@@H](N)C(=O)Nc2ccc(N/C(=N/[C@H]3C[C@H]4C[C@@H]([C@@H]3C)C4(C)C)N3C[C@@H](C)N[C@@H](C)C3)cc2)c(F)c1 [Example 107, (2R)-2-amino-N-{4-[((Z)-[(3R,5S)-3,5-dimethylpiperazine-1-yl]{[(1S,2S,3S,5R)-2,6,6-trimethylbicyclo[3.1.1]hept-3-yl]imino}methyl)amino]phenyl}-3-[2-fluoro-4-(methyloxy)phenyl]propanamide] | above 3
COc1ccc(C[C@@H](COCc2ccccc2)C(=O)Nc2ccc(N/C(=N/[C@H]3C[C@H]4C[C@@H]([C@@H]3C)C4(C)C)N3C[C@@H](C)N[C@@H](C)C3)cc2)c(F)c1 [Example 121, (2S)-N-{4-[((Z)-[(3R,5S)-3,5-dimethylpiperazin-1-yl]{[(1S,2S,3S,5R)-2,6,6-trimethylbicyclo[3.1.1]hept-3-yl]imino}methyl)amino]phenyl}-3-[2-fluoro-4-(methyloxy)phenyl]-2-{[(phenylmethyl)oxy]methyl}propanamide] | above 3
Cc1ccc(C[C@@H](CO)C(=O)Nc2ccc(N/C(=N/[C@H]3C[C@H]4C[C@@H]([C@@H]3C)C4(C)C)N3C[C@@H](C)N[C@@H](C)C3)cc2)c(C)c1 [Example 126, (2S)-3-(2,4-dimethylphenyl)-N-{4-[((Z)-[(3R,5S)-3,5-dimethylpiperazin-1-yl]{[(1S,2S,3S,5R)-2,6,6-trimethylbicyclo[3.1.1]hept-3-yl]imino}methyl)amino]phenyl}-2-(hydroxymethyl)propanamide] | above 3
Cc1ccc(C[C@@H](COCc2ccccc2)C(=O)Nc2ccc(N/C(=N/[C@H]3C[C@H]4C[C@@H]([C@@H]3C)C4(C)C)N3C[C@@H](C)N[C@@H](C)C3)cc2)c(F)c1 [Example 128, (2S)-N-{4-[((Z)-[(3R,5S)-3,5-dimethylpiperazin-1-yl]{[(1S,2S,3S,5R)-2,6,6-trimethylbicyclo[3.1.1]hept-3-yl]imino}methyl)amino]phenyl}-3-(2-fluoro-4-methylphenyl)-2-{[(phenylmethyl)oxy]methyl}propanamide] | above 3
Cc1ccc(C[C@@H](COCc2ccccc2)C(=O)Nc2ccc(N/C(=N/[C@H]3C[C@H]4C[C@@H]([C@@H]3C)C4(C)C)N3C[C@@H](C)N[C@@H](C)C3)cc2)c(C)c1 [Example 129, (2S)-3-(2,4-dimethylphenyl)-N-{4-[((Z)-[(3R,5S)-3,5-dimethylpiperazin-1-yl]{[(1S,2S,3S,5R)-2,6,6-trimethylbicyclo[3.1.1]hept-3-yl]imino}methyl)amino]phenyl}-2-{[(phenylmethyl)oxy]methyl}propanamide] | above 3
Cc1ccc(C[C@@H](CO)C(=O)Nc2ccc(N/C(=N/[C@H]3C[C@H]4C[C@@H]([C@@H]3C)C4(C)C)N3C[C@@H](C)N[C@@H](C)C3)cc2)c(F)c1 [Example 130, (2S)-N-{4-[((Z)-[(3R,5S)-3,5-dimethylpiperazin-1-yl]{[(1S,2S,3S,5R)-2,6,6-trimethylbicyclo[3.1.1]hept-3-yl]imino}methyl)amino]phenyl}-3-(2-fluoro-4-methylphenyl)-2-(hydroxymethyl)propanamide] | above 3
